Measurements taken from article PMC7519157.
Results are given in words; binding and its absence hold for the method and conditions named. In cells and extracts the contact can be indirect. Some entries that bind do so weakly or less than the wild type.

Molecular target: T1, PTPN14 in Hep G2 cells (human (endogenous in Hep G2)) (UniProt Q15678)
T1 sequence: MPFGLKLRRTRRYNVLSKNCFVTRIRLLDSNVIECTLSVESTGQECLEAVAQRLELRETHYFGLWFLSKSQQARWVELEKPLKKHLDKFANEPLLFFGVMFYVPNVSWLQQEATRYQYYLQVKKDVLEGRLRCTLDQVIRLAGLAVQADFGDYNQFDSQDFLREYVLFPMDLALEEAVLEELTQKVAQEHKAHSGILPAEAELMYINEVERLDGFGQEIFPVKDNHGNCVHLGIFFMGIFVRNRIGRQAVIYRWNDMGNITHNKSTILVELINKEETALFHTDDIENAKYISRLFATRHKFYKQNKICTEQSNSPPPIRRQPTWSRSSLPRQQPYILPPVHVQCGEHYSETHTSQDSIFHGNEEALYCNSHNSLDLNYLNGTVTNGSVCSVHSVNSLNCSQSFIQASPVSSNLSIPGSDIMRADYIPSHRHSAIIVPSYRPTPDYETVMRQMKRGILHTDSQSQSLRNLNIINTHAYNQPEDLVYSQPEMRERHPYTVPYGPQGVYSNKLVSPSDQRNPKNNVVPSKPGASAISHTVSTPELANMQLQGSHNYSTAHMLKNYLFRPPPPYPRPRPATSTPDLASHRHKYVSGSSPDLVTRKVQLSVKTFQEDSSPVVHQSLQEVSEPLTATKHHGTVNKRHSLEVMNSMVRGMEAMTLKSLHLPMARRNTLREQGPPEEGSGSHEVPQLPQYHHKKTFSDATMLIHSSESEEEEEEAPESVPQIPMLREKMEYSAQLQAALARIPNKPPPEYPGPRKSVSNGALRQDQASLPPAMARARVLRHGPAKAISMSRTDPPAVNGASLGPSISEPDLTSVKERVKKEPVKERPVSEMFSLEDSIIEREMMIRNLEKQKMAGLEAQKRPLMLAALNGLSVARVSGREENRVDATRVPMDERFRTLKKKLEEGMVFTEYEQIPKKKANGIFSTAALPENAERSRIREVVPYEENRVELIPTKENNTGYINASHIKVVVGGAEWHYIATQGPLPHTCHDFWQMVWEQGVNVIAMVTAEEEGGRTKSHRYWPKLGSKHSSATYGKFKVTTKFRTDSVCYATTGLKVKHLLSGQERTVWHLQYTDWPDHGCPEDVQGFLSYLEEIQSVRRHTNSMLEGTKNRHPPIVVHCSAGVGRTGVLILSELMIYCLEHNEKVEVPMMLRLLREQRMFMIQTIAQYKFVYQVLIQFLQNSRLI
Experiment: co-IP; Hep G2 cells treated with E64d+PepA or MG132, stimulated with 1 μg/mL LPS and 5 mM D-GalN for 24 h; lysates with antibodies and Protein A/G beads overnight at 4 °C

binding: binds
B1: SOCS7 in Hep G2 cells (protein, UniProt O14512 1-581)
chain: MVFRNVGRPPEEEDVEAAPEPGPSELLCPRHRCALDPKALPPGLALERTWGPAAGLEAQLAALGLGQPAGPGVKTVGGGCCPCPCPPQPPPPQPQPPAAAPQAGEDPTETSDALLVLEGLESEAESLETNSCSEEELSSPGRGGGGGGRLLLQPPGPELPPVPFPLQDLVPLGRLSRGEQQQQQQQQPPPPPPPPGPLRPLAGPSRKGSFKIRLSRLFRTKSCNGGSGGGDGTGKRPSGELAASAASLTDMGGSAGRELDAGRKPKLTRTQSAFSPVSFSPLFTGETVSLVDVDISQRGLTSPHPPTPPPPPRRSLSLLDDISGTLPTSVLVAPMGSSLQSFPLPPPPPPHAPDAFPRIAPIRAAESLHSQPPQHLQCPLYRPDSSSFAASLRELEKCGWYWGPMNWEDAEMKLKGKPDGSFLVRDSSDPRYILSLSFRSQGITHHTRMEHYRGTFSLWCHPKFEDRCQSVVEFIKRAIMHSKNGKFLYFLRSRVPGLPPTPVQLLYPVSRFSNVKSLQHLCRFRIRQLVRIDHIPDLPLPKPLISYIRKFYYYDPQEEVYLSLKEAQLISKQKQEVEPST
